Drawing on patent US10450368, this text covers binding for one molecule.

Sequences of proteins named here, by UniProt entry; tags and fusion partners are left off.
UniProt P11387: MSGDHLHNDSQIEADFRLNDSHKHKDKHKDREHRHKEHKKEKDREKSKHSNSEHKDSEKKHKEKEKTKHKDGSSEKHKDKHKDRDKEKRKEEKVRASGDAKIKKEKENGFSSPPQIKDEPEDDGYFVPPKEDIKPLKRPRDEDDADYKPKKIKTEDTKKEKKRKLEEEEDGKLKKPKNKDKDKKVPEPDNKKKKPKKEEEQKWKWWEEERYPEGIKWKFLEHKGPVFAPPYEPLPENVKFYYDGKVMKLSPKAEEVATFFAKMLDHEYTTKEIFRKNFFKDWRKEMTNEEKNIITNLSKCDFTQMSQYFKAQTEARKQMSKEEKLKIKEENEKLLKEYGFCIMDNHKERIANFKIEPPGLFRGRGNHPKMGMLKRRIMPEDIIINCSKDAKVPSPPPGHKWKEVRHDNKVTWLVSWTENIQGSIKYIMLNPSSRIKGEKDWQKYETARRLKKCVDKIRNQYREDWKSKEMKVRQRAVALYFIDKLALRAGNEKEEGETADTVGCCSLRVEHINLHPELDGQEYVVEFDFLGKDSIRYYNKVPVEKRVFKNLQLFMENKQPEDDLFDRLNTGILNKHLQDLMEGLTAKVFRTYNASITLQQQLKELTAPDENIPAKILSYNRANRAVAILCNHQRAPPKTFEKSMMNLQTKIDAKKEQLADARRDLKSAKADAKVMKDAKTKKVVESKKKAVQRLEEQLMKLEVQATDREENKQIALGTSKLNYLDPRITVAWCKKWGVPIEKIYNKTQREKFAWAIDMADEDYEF

In this assay the target is Scl-70 (UniProt P11387). In words: condition: <100 relative luminescence units; up to 50 ug/ml; AtheNA Multi-Lyte ANA.

These are yes or no findings as the source states them, for the method shown.

B1: CH236 (antibody, V domains shown)
VH: QVQLVQSGAAVKRPGASVTISCRASGYTFTTYYIHWVRQAPGQRLELMGMIDPSRGRTDYAQKFQGRVTMSRDTSTSTLYMELRSLRPDDTALYYCVRNVGTEGSLLHYDYWGQGTLVTVSS
VL: EIVLTQSPATLSVSPGERVTLSCRASQSVRNNLAWYRQKRGQAPRLLIYGASTRATGIPARFSGSGSGTEFTLTISSMQSEDFAVYYCQQYNNWWTFGQGTKVEIK
For the molecule B1, the binding entry is recorded as “no binding”.
